# Measured values taken from PubChem BioAssay AID588590 (National Center for Advancing Translational Sciences (NCATS), 2011).
# The chains behind the UniProt entries cited, without tags or fusion partners. Where a name states a change or a piece, a line headed by the entry shows the natural chain unless it says otherwise.
# UniProt Q9UNA4: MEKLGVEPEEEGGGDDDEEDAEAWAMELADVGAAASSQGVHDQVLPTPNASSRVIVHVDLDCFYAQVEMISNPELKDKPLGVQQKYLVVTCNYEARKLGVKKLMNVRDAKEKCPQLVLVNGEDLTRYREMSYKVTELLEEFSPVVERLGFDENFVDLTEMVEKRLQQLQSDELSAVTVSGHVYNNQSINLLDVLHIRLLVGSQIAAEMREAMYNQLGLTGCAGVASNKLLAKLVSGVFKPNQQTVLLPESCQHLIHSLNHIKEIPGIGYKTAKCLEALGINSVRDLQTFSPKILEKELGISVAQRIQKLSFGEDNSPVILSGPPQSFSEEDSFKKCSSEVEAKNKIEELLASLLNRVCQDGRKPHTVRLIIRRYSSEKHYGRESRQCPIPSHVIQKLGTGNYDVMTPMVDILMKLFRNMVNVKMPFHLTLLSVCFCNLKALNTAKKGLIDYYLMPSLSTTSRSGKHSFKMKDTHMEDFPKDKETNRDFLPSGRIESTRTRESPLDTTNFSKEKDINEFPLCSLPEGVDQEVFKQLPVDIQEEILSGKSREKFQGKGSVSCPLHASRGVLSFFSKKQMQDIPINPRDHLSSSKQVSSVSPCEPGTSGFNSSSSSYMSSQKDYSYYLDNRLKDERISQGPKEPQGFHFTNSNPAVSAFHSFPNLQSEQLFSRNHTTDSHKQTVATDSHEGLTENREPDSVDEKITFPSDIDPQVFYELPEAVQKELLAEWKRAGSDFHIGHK
# Values joined by “and” are separate entries in the source; they are usually repeats but may differ in a detail not shown here. Equal values may be shown once. Hit rate of the full screen: of about 390,000 compounds, about 4,000 (1%) were called active. The inconclusive results got no clear call from the source; some entries with a clear call stand among them for comparison. Calls follow the shape of the dose curve; as a rule, active = well fitted inhibition curve with a large enough effect; inconclusive = small, poorly fitted or top-dose-only effect, or another doubt; inactive = no such curve, though single readings can be large or run the other way. Where the call is inconclusive, the potency comes from a doubtful curve fit.
# Molecular target: DNA polymerase iota (Homo sapiens) (UniProt Q9UNA4)
# Test: qHTS for Inhibitors of Polymerase Iota
# Settings: Pol iota fluorescent replication assay, 10 min; series mostly up to 115 µM
# Outline: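 Pol iota at 10 nM preincubated 15 min with compounds at room temperature; reaction started with fluorescent substrate, 50 nM final. Fluorescence read kinetically at 0 and 10 min; buffer-only wells as negative control.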
# Potency is read from the fitted curve at half-maximal effect.
row,SMILES,Potency
1,Oc1ccc(F)c2cccnc12,inactive
2,Cc1c(C(=O)Nc2ccncc2)sc2nc(-c3ccccc3)cn12,"inconclusive: 79.4 µM [inhibitor, single point]"
3,COc1cccc(-c2noc(C3CCCN(C(=O)c4ccc(F)cc4)C3)n2)c1 (stereo not given),"inconclusive: 10 µM [inhibitor, partial curve, poor fit]"
4,CCOc1ccc2oc(C(=O)NNC(=O)c3ccccc3O)c(C)c2c1,"inconclusive: 44.7 µM [inhibitor, partial curve, poor fit]"
5,Cc1nnc2sc(-c3ccc(NC(=O)c4ccc(-c5ccc(Cl)cc5Cl)o4)cc3)nn12,"inconclusive: 7.08 µM [inhibitor, full curve, poor fit]"
6,CN(Cc1ccccc1F)Cc1cc(=O)oc2cc(O)c(Cl)cc12,"inconclusive: 10 µM [inhibitor, partial curve, poor fit]"
7,Cc1ccccc1OCC(=O)N/N=C/c1cccn1C,"inconclusive: 39.8 µM [inhibitor, single point]"
8,Cc1cc(N2CCN(c3cccc(C)c3C)CC2)n2cnnc2n1,"inconclusive: 100 µM [inhibitor, partial curve, poor fit]"
9,O=C(O)Cc1sc(Nc2cccc3ccccc23)nc1-c1ccccc1,inactive
10,COc1ccc(C(=O)Nc2ccc(S(=O)(=O)Nc3nccc(C)n3)cc2)cc1,inactive
11,COCOc1cc(O)c2c(=O)c(OCOC)c(-c3ccc(OCOC)c(OCOC)c3)oc2c1,"inconclusive: 56.2 µM [inhibitor, partial curve, poor fit]"
12,Cc1ccc(CNC(=O)N2CCN(c3ccc(C)cc3)CC2)cc1,"inconclusive: 44.7 µM [inhibitor, partial curve, poor fit]"
13,CCCCCCCC/C=C\CCCCCCCC(=O)NCCc1ccc(O)c(O)c1,"inconclusive: 28.2 µM [inhibitor, single point] and inconclusive: 10 µM [inhibitor, partial curve, poor fit]"
14,COc1cc(/C=N/Nc2nc(C)cc(=O)[nH]2)ccc1O,"inconclusive: 50.1 µM [inhibitor, partial curve, poor fit]"
15,C#CCOC(=O)c1ccccc1C(=O)O,active: 79.4 µM
16,CCOC(=O)/C(N=Nc1ccc(C(=O)O)cc1[N+](=O)[O-])=C(\C)O,"inconclusive: 89.1 µM [inhibitor, single point]"
17,COc1ccc(-c2cc(C(F)(F)F)c3c(N)c(C(=O)NCCSC)sc3n2)cc1,inactive
18,O=C(O)CCc1ccc(-c2ccc(Cl)cc2)n1CC(=O)O,"inconclusive: 44.7 µM [inhibitor, partial curve, poor fit]"
19,O=[N+]([O-])c1ccccc1S(=O)(=O)N1CCN(Cc2ccccc2)CC1,"inconclusive: 14.1 µM [inhibitor, partial curve]"
20,O=C(N/N=C\c1ccc(F)cc1)c1csnn1,"inconclusive: 11.2 µM [inhibitor, partial curve]"

# Structures shown so far that have four or more nitrogen atoms (6):
row,SMILES,Potency
2,Cc1c(C(=O)Nc2ccncc2)sc2nc(-c3ccccc3)cn12,"inconclusive: 79.4 µM [inhibitor, single point]"
5,Cc1nnc2sc(-c3ccc(NC(=O)c4ccc(-c5ccc(Cl)cc5Cl)o4)cc3)nn12,"inconclusive: 7.08 µM [inhibitor, full curve, poor fit]"
8,Cc1cc(N2CCN(c3cccc(C)c3C)CC2)n2cnnc2n1,"inconclusive: 100 µM [inhibitor, partial curve, poor fit]"
10,COc1ccc(C(=O)Nc2ccc(S(=O)(=O)Nc3nccc(C)n3)cc2)cc1,inactive
14,COc1cc(/C=N/Nc2nc(C)cc(=O)[nH]2)ccc1O,"inconclusive: 50.1 µM [inhibitor, partial curve, poor fit]"
20,O=C(N/N=C\c1ccc(F)cc1)c1csnn1,"inconclusive: 11.2 µM [inhibitor, partial curve]"

# Additional records

row,SMILES,Potency
1,Cc1nnc(SCC(=O)Nc2c(Cl)cccc2Cl)[nH]c1=O,"inconclusive: 39.8 µM [inhibitor, partial curve, poor fit]"
2,Cc1cc(C)n(Cc2cccc(F)c2)c(=O)c1C#N,"inconclusive: 89.1 µM [inhibitor, single point]"
3,O=C(Nc1ccccc1N1CCOCC1)C1=NN(c2ccccc2)C(=O)CC1,"inconclusive: 79.4 µM [inhibitor, single point]"
4,COc1ccc(-c2nc3ccccc3s2)cc1O,"inconclusive: 15.8 µM [inhibitor, partial curve, poor fit]"
5,CC[n+]1ccc(/C=C/c2ccc(N(C)C)cc2)c2ccccc21,inactive
6,CCOC(=O)c1cnc2c(C)c(Cl)ccc2c1NCCc1ccc(OC)c(OC)c1,"inconclusive: 89.1 µM [inhibitor, single point]"
7,Cc1ccc2nc(NCc3ccccc3)c3nnnn3c2c1,inactive
8,Cc1ccc(/C=C/C(=O)Nc2ccccc2C(N)=O)cc1,"inconclusive: 112 µM [inhibitor, single point]"
9,COc1ccc(Cl)cc1N=Cc1c(O)cc(C)oc1=O,"inconclusive: 20 µM [inhibitor, full curve, poor fit]"
10,COc1ccc(N(C(=O)CCl)C(C(=O)NCCc2ccccc2)c2cccs2)cc1Cl (stereo not given),"inconclusive: 35.5 µM [inhibitor, partial curve, poor fit]"
11,Cc1c(Cl)cccc1NC(=O)CCCn1nc(C)c2sc3ccccc3c2c1=O,inactive
12,COc1cc(/C=C2/C(=O)NN(c3cccc(F)c3)C2=O)ccc1OC(=O)c1ccco1,"inconclusive: 63.1 µM [inhibitor, full curve, poor fit]"
13,NC(=O)Nc1ccc(C(=O)OCC(=O)Nc2sccc2C(N)=O)cc1,"inconclusive: 39.8 µM [inhibitor, partial curve]"
14,Fc1cccc(/C=C2\CCCC3=C2NC(=S)NC3c2cccc(F)c2)c1 (stereo not given),"inconclusive: 100 µM [inhibitor, partial curve, poor fit]"
15,Fc1ccccc1N1CCN(Cc2nc(-c3ccc(Cl)cc3Cl)no2)CC1,"inconclusive: 8.91 µM [inhibitor, full curve, poor fit]"
16,O=C(Nc1nnc(SCCC2OCCO2)s1)C1CC(=O)N(c2ccccc2)C1 (stereo not given),"inconclusive: 20 µM [inhibitor, full curve, poor fit]"
17,CC(C)Sc1nc2sc3c(c2c(=O)n1Cc1ccccc1)CCCC3,"inconclusive: 89.1 µM [inhibitor, single point]"
18,C[C@@H](c1ccccc1)N1C[C@H]2CCCN2c2cc(Br)ccc2S1(=O)=O,"inconclusive: 39.8 µM [inhibitor, single point]"
19,CNS(=O)(=O)c1cccc(C(=O)OCc2cc(=O)oc3c(C)c(O)ccc23)c1,"inconclusive: 56.2 µM [inhibitor, partial curve, poor fit]"
20,Cc1ccc2c(=O)cc(C(=O)Nc3sc4c(c3C(=O)NCc3ccco3)CCC4)oc2c1,"inconclusive: 89.1 µM [inhibitor, single point]"
